In PubChem BioAssay AID1259415 (National Center for Advancing Translational Sciences (NCATS), 2018):
Where “and” joins values, the source holds several entries; their conditions need not be identical. Equal entries are not always repeated. The whole screen tested about 410,000 compounds, of which about 18,000 (4.4%) were called active. This list was built around the results that the source calls inconclusive (neither active nor inactive); the mix of calls is not that of the screen. Rule as the data show it: active = activity change below about -60%; inconclusive = no clear call, values can overlap the other calls; inactive = above about -39%.

Assay: qHTS Assay for inhibitors of the human cytomegalovirus (HCMV)
Details: HFF cells, HCMV-luciferase reporter, 72 h; at 57.5 µM; stronger effect = lower value
Method in brief: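 After 16 h attachment at 37C, HFF cells received test compound and HCMV-luciferase (1 PFU/cell); reporter luminescence read 72 h later, data normalized against buffer-only and known inhibitor Salinomycin.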
% is scaled to controls: 0 for no effect and ±100 for the full control effect.

SMILES	activity change, negative = inhibition
Cc1cc(N2CCN(C)CC2)nc(N2CCOCC2)n1	inactive: -38.2%
O=C(COC(=O)c1cc(S(=O)(=O)N2CCCCC2)ccc1Cl)NC1CCS(=O)(=O)C1 (stereo not drawn)	inconclusive: -51.7%
O=C(CCl)N1c2ccccc2Oc2ccc3ccccc3c21	inconclusive: -40.5%
COc1ccc(Br)cc1-c1noc(-c2ccncc2)n1	inconclusive: -43.1%
Cc1ccc(-n2c(SCC(=O)N3CC(=O)Nc4ccccc43)nc3ccccc3c2=O)cc1	active: -68%
CCOC(=O)C1=C[C@@H](CC)N(S(=O)(=O)c2ccc(C)cc2)[C@H]1c1cccs1	inconclusive: -46.4%
COc1ccc(-c2nc3ccccc3nc2-c2ccccc2)cc1	inactive: -34.9%
COc1cccc(NC(=O)CSc2nc(-c3ccccc3)nc3c2Cc2cc(Cl)ccc2O3)c1	inactive: 7.75%
CCC(=O)Oc1c(C(=O)CC)cc2c(C)cc(=O)oc2c1C	inconclusive: -43.3%
OCCN1CCOCCN(CCO)CCOCC1	active: -92.1%
COc1ccc(NC(=O)N(C)C[C@H]2Oc3ccc(NC(=O)CCN4CCOCC4)cc3C(=O)N([C@@H](C)CO)C[C@H]2C)cc1	inactive: -26.1%
O=C1CC(C(=O)Nc2ccc(F)cc2)n2cnnc2N1 (stereo not drawn)	active: -71.2%
CC(=O)Nc1ccccc1C	inconclusive: -52.2%
CCOc1ccc(N2C(=O)/C(=C/c3ccc(C)o3)N(C)C2=S)cc1	inconclusive: -47.5%
O=C(O)/C=C\C(=O)Nc1ccccc1C(=O)NCc1ccccc1	inconclusive: -43%
CCCCn1c(N)c(N(CCOC)C(=O)CSc2nnc(-c3ccncc3)n2CCC)c(=O)[nH]c1=O	inconclusive: -59.4%
Cc1cccc(-c2noc(CN(C(=O)c3ccc(C)c(C)c3)C(C)C)n2)c1	active: -94.6%
COc1ccccc1-n1cnc2c(c1=O)c1nc3ccccc3nc1n2CCc1ccccc1	inconclusive: -49.4%
Cc1cc(Oc2ccccc2F)nc(NCc2ccccc2)n1	inconclusive: -48.8%
CCc1ccc(OCC(=O)NC(NC(=S)Nc2ccccc2OC)C(Cl)(Cl)Cl)cc1 (stereo not drawn)	active: -71.6%
O=S(=O)(Cc1ccc(Cl)cc1)Oc1ccc(Cl)cc1	inconclusive: -49.1%

SMILES	activity change, negative = inhibition
CC(C)(C)n1cc(C(=O)c2ccc3ccccc3c2O)cn1	inconclusive: -55.4%
CCN(CC)CCc1nc(-c2ccccc2)no1	inconclusive: -54%
CCc1ccc(C(=O)Nc2ccc3c(c2)n(C)c(=O)n3C)cc1	inconclusive: -49.2%
COc1cccc(CNS(=O)(=O)c2c(C)[nH]c(C)c2C(=O)N2CCCCC2)c1	inconclusive: -43.8%
COc1cc(C(=O)NCCOc2cc(C)ccc2C(C)C)cc(OC)c1OC	active: -67%
O=C(CN(C(=O)CNC(=O)c1ccco1)c1ccc2c(c1)OCCO2)NC1CCCCC1	inconclusive: -46%
CCOc1ccc(-c2cc(CCCC(=O)Nc3cccc(OC)c3)no2)cc1	inconclusive: -50.6%
O=C(CNC(=O)c1ccc(Cl)cc1Cl)OCCOc1ccccc1F	inactive: -35.9%
COCCNC(=O)C(c1ccc(C)o1)N(C(=O)c1snc(C(N)=O)c1N)c1ccc(C)cc1 (stereo not drawn)	inconclusive: -42.8%
N#Cc1c(-c2ccc(F)cc2)nc(-c2ccccc2)[nH]c1=O	inconclusive: -56.4%
COc1ccc(S(=O)(=O)N(C)Cc2ccc3c(c2)OCCO3)cc1	inactive: -13.7%
CCOc1ccccc1Nc1ncccc1C(=O)N1CCCC1	inconclusive: -55.5%
Cc1ccc(-c2nn3c(C)nnc3c3ccccc23)cc1S(=O)(=O)NCCO	inactive: 16.1% and inactive: 126%
Cc1cccc(N(CC(=O)NC(C)c2ccccc2)S(=O)(=O)c2ccccc2)c1C (stereo not drawn)	inactive: -19.7%
O=C(NC1CC1)c1cccc(NC(=O)C2CC2)c1	active: -80.9%
Cc1ccc(-c2cn3cccc(C)c3n2)cc1NS(=O)(=O)c1ccccc1	active: -85.2%
O=c1[nH]c(C2CCN(S(=O)(=O)/C=C/c3ccccc3)CC2)nc2c1nnn2Cc1ccccc1	inconclusive: -52.2%
CCCCN(c1ccccc1)c1ncnc2c1cnn2-c1ccc(Cl)cc1	inconclusive: -57.1%
CC(=O)Nc1ccc(S(=O)(=O)N2CCc3c(Cl)cccc3C2)cc1	active: -66.6%
COc1ccc(OC)c(CCNC(=O)CCn2c(=O)c3cccn3c3cccnc32)c1	inconclusive: -49.8%
CC(C)NC(=O)C1(C)CN(S(C)(=O)=O)CC(=O)N1CCc1ccccc1 (stereo not drawn)	inconclusive: -41.1%
Cc1ccccc1Nc1c(-c2ccsc2)nc2c(C)cccn12	active: -84.4%

22 neighbouring records already listed, quoted:
SMILES	activity change, negative = inhibition
Cc1cc(Oc2ccccc2F)nc(NCc2ccccc2)n1	inconclusive: -48.8%
CCc1ccc(OCC(=O)NC(NC(=S)Nc2ccccc2OC)C(Cl)(Cl)Cl)cc1 (stereo not drawn)	active: -71.6%
O=S(=O)(Cc1ccc(Cl)cc1)Oc1ccc(Cl)cc1	inconclusive: -49.1%
CC(C)(C)n1cc(C(=O)c2ccc3ccccc3c2O)cn1	inconclusive: -55.4%
CCN(CC)CCc1nc(-c2ccccc2)no1	inconclusive: -54%
CCc1ccc(C(=O)Nc2ccc3c(c2)n(C)c(=O)n3C)cc1	inconclusive: -49.2%
COc1cccc(CNS(=O)(=O)c2c(C)[nH]c(C)c2C(=O)N2CCCCC2)c1	inconclusive: -43.8%
COc1cc(C(=O)NCCOc2cc(C)ccc2C(C)C)cc(OC)c1OC	active: -67%
O=C(CN(C(=O)CNC(=O)c1ccco1)c1ccc2c(c1)OCCO2)NC1CCCCC1	inconclusive: -46%
CCOc1ccc(-c2cc(CCCC(=O)Nc3cccc(OC)c3)no2)cc1	inconclusive: -50.6%
O=C(CNC(=O)c1ccc(Cl)cc1Cl)OCCOc1ccccc1F	inactive: -35.9%
COCCNC(=O)C(c1ccc(C)o1)N(C(=O)c1snc(C(N)=O)c1N)c1ccc(C)cc1 (stereo not drawn)	inconclusive: -42.8%
N#Cc1c(-c2ccc(F)cc2)nc(-c2ccccc2)[nH]c1=O	inconclusive: -56.4%
COc1ccc(S(=O)(=O)N(C)Cc2ccc3c(c2)OCCO3)cc1	inactive: -13.7%
CCOc1ccccc1Nc1ncccc1C(=O)N1CCCC1	inconclusive: -55.5%
Cc1ccc(-c2nn3c(C)nnc3c3ccccc23)cc1S(=O)(=O)NCCO	inactive: 16.1% and inactive: 126%
Cc1cccc(N(CC(=O)NC(C)c2ccccc2)S(=O)(=O)c2ccccc2)c1C (stereo not drawn)	inactive: -19.7%
O=C(NC1CC1)c1cccc(NC(=O)C2CC2)c1	active: -80.9%
Cc1ccc(-c2cn3cccc(C)c3n2)cc1NS(=O)(=O)c1ccccc1	active: -85.2%
O=c1[nH]c(C2CCN(S(=O)(=O)/C=C/c3ccccc3)CC2)nc2c1nnn2Cc1ccccc1	inconclusive: -52.2%
CCCCN(c1ccccc1)c1ncnc2c1cnn2-c1ccc(Cl)cc1	inconclusive: -57.1%
CC(=O)Nc1ccc(S(=O)(=O)N2CCc3c(Cl)cccc3C2)cc1	active: -66.6%

Next structures follow:

SMILES	activity change, negative = inhibition
O=C(NCc1cccc(Cl)c1)c1cccn1-c1nnc(N2CCCC2)s1	inconclusive: 0%
CCn1c(=O)c(C(C)=O)nc2ccccc21	active: -65.7%
CCC(=O)N1CCc2cc(S(=O)(=O)CCC(=O)N3CCN(c4cccc(C)c4)C(C)C3)ccc21 (stereo not drawn)	inconclusive: -46%
COCCCNC(=O)Cn1nnc(-c2ccc(NC(=O)c3ccccc3F)cc2)n1	inactive: 61.6%
Cn1nc(CC(=O)NC2CCCCCCCCCCC2)c2ccccc2c1=O	inconclusive: -40.4%
COC(=O)C(C)N1C(=O)S/C(=C/c2cc(C)n(-c3ccccn3)c2C)C1=O (stereo not drawn)	inactive: 23.5%
Cc1ccc(C(=O)Nc2ccc(N3CCCC3)cc2)c(C)c1	inconclusive: -44.9%
CCc1ccc2[nH]c3nc(SCC(=O)NCC4CCCO4)nnc3c2c1 (stereo not drawn)	inconclusive: -42.5%
CCc1ccc(-n2nc3ccc(NC(=O)c4cc5ccccc5o4)cc3n2)cc1	inactive: 7.91%
O=C(Nc1ccccc1-c1ccccc1)c1cccs1	inconclusive: -42.2%
O=C(c1ccccc1)N1CCN(c2ccc([N+](=O)[O-])c(NCc3ccco3)c2)CC1	inconclusive: -44%
CC(NCc1ccccc1O)C12CC3CC(CC(C3)C1)C2 (stereo not drawn)	active: -86.9%
O=C(c1ccccc1)N1CCN(CC#CC2(O)CCCCC2)CC1	inconclusive: -41.8%
CCCc1cc(C(=O)N2CCN(C(c3ccccc3)c3ccccc3)CC2)no1	inactive: -3.94%
CC(c1ccccc1)N1CCn2c(nc3cc(NC(=O)c4cccs4)ccc32)C1 (stereo not drawn)	active: -73.2%
COc1cccc(-n2c(=O)c3sccc3n(CC(=O)NC3CCCC3)c2=O)c1	inconclusive: -57.7%
Cc1ccc(/C=C2\C(=N)N3N=C(CC(=O)N4CCCCC4)SC3=NC2=O)cc1	inconclusive: -40.1%
CC1CN(Cc2nc3c(c(=O)[nH]c(=O)n3C)n2CCCc2ccccc2)CC(C)O1 (stereo not drawn)	inactive: 55.9%
Cc1ccc(-c2nn(-c3ccccc3)cc2/C=N/NC(=O)c2ccncc2)o1	inconclusive: -49.7%
CCNC(=S)N1CCN(c2ccccn2)CC1	inactive: 1.59%
CC(=O)N(CCCc1ccc(C(C)(C)C)cc1)CCCN(C)C	inconclusive: -41.2%
CCOC(=O)c1cc(-c2csc(-c3ccc(C(F)(F)F)cc3)n2)on1	inconclusive: -53.7%

SMILES	activity change, negative = inhibition
Cc1ccc(NCC(=O)Nc2ccc(F)c(Cl)c2)cc1S(=O)(=O)N1CCOCC1	active: -60.6%
CC(C)n1c(NCc2ccccc2O)nc2ccccc21	inactive: 18.4%
CCOC(=O)c1c(C)[nH]c(C)c1C(=O)COc1ccc(NC(=O)c2ccco2)cc1	active: -64.4%
CCOc1ccc(S(=O)(=O)NCCc2sc(-c3ccc(C)cc3)nc2C)cc1	inconclusive: -40.3%
CCNC(=S)N/N=C(\C)c1cccc([N+](=O)[O-])c1	inconclusive: -57.6%
Cc1cnc(Nc2nc3ccccc3o2)nc1C(=O)Nc1cccc(C(F)(F)F)c1	active: -73.7%
N#CC1CN(Cc2ccccc2)CN(Cc2ccccc2)C1	active: -62.5%
N#CCCN(Cc1cccnc1)C(=S)NC(=O)c1ccc(S(=O)(=O)N2CCCC2)cc1	inconclusive: -42.9%
N#Cc1ccccc1Cn1nnc2c(=O)[nH]c(C3CCCN(S(=O)(=O)c4ccc(F)cc4)C3)nc21 (stereo not drawn)	inconclusive: -41.9%
CCCCn1c(CCC)nc([N+](=O)[O-])c1Sc1ccc(Cl)cn1	active: -77.3%
CC(C)CC1OC(C(C)C)Cc2[nH]c(=S)[nH]c(=O)c21 (stereo not drawn)	inconclusive: -41.8%
COc1ccc(-n2c(Cc3cccn3C)nnc2SCC(=O)Nc2cccc(F)c2)cc1	inactive: -11.6%
O=C(CSCc1cccc(CSCC(=O)Nc2ccc3ccccc3c2)n1)Nc1ccc2ccccc2c1	active: -82.2%
CCOC(=O)Cc1csc(NC(=O)c2c(C)noc2C)n1	active: -99.2%
COCCNC(=O)/C(C#N)=C/c1cccc(/C=C(\C#N)C(=O)NCCOC)c1	active: -68.3%
CN1CCN(C2Cc3ccc(F)cc3Sc3cc(F)c(Cl)cc32)CC1 (stereo not drawn)	active: -95.5%
C=CCOc1ccc(CN(C)C(=O)CNC(=O)c2ccc(-c3ccccc3)cc2)cc1	active: -80.7%
O=C(Nc1cccc(NC(=O)c2ccc(-c3ccc(Br)cc3)o2)c1)c1ccco1	inconclusive: -54.2%
COc1ccc(S(=O)(=O)N2CCOCC2)cc1NC(=O)c1ccccc1-c1ccc(C(F)(F)F)cc1	inconclusive: -54.1%
COc1ccc(N(CC(=O)NCc2ccccc2C)S(=O)(=O)c2ccc(C)cc2)cc1OC	inactive: -19%
c1ccc(-c2cc(-c3nc4ccccc4[nH]3)c3ccccc3n2)cc1	active: -94.2%
COc1ccc(C(=O)C(=NNc2ccccc2)c2ccc(OC)cc2)cc1	inconclusive: -53.7%
